Here are results for 2 substances from patent US11180533 (dated 2021).

A short description of the series: general procedure: Fmoc solid-phase peptide synthesis; Rink amide AM resin; HOBt/DIC.

With Cetrorelix trifluoroacetate salt, the “final HPLC purity” value (purification step, HPLC (fractions), TFA salt) stood at 98%. Further, for the setting “purification step, TFA salt”, the step yield was 20%. For the same substance, the “crude purity (method not given)” value (whole synthesis, HPLC (fractions), scale of the general procedure 100 g of Rink Amide AM Resin, TFA salt) amounted to 75%. The crude mass (whole synthesis, TFA salt) came to 80.0 gms.
“Acetyl-D-3-(2″-naphtyl)-alanine-D-4-chlorophenylalanine-D-3-(3″-pyridyl)alanine-L-serine-L-tyrosine-D-citruline-L-leucine-L-arginine-L-proline-D-alanine-amide acetate salt”: under “purification step, HPLC (fractions), acetate salt”, the “final purity (method not given)” value is reported as 99.6%. For the same substance, the step yield (purification step, acetate salt) was found to be 85.0%.
